This note sets out measurements from publication PMC12005806.

Protein sequences, listed by entry. Tags and fused reporters are not part of them. Lines headed by an entry give the natural chain unless they say otherwise; changes in a name come on top.
UniProt P10749: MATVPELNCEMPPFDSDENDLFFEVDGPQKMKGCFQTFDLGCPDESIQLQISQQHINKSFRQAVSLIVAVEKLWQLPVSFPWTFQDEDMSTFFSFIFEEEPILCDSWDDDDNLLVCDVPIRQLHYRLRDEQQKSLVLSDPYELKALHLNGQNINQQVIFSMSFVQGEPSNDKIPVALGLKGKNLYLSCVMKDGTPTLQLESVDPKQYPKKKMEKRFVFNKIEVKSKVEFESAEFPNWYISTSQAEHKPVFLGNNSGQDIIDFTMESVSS

This test has as its target IL-1β (co-immunoprecipitation of Figure S3C) (UniProt P10749). Put plainly: co-IP; co-immunoprecipitation of Ufl1 with inflammasome components (Figure S3C); cells and constructs not told in the text shown.

These are yes or no findings as the source states them, for the method shown. Binding seen in cells or lysates may run through a third protein. Binding can be weak; no strength is given.

B1: Ufl1 (co-immunoprecipitation of Figure S3C) (protein, UniProt Q8CCJ3 1-793)
chain: MADAWEEIRRLAADFQRAQFAESTQRLSERNCIEIVNKLISQKQLEVVHTLDGKEYITPAQISKEMRDELHVRGGRVNIVDLQQVINVDLTHIESRVSDIIKSEKHVQMVLGQLIDENYLDQLSEEVNDKLQESGQVTVSELCKAYDLPGDFLTQALTQRLGRIINGHLDLDNRGVIFTEAFVARHKARIRGLFSAITRPTPVNSLVSKYGFQEQLLYSVLEDLVSTGRLRGTVVGGRQDKAVFVPDIYSRTQSTWVDSFFRQNGYLEFDALSRLGIPDAVNYIKKRYKNTQLLFLKATCVGQGLVDQVEASVEEAISSGTWVDISPLLPSSLSVEDAAMLLQQVMRPFGKLASAIVFSDTVVVSEKFITDCTGLFSERMHQKAEKEMKNNPVHLITEEDLKQISILESVNTSKKDKKDERRKKATEGSGSVRGGGGGNAREYKIKKTKKKGRKDEDSDDESQSSHGGKKKPDITFMFQDEIEDCLRKHIQDAPEEFISELAEYLIKPLNKMYLEVVRSVFMSSTSASGTGRKRTIKDLQEEVSNLYNNIRLFEKGMKYFADDTQTALTKHLLKTVCTDITNLMFNFLASDFLMAVEEPAAITSDIRKKILSKLTEETKVALTKLHNSLNEKSIEDFLSCLDSATEACDIMVKKGDKKRERQILFQHRQALCEQLKVTEDPALILHLTAVLLFQLSTHSMLHAPGRCVPQIIAFLHSKIPEDQHTLLVKYQGLVVKQLVSQNKKTGQGEDPSSDELDKEQHDVTNATRKELQELSLSIKDLVLKSRKSSVTEE
For the molecule B1, the binding result was “binds weakly”.
